Data taken from paper PMC4889105.
No constants are given. Whether binding was seen depends on the method and setting. Some entries that bind do so weakly or less than the wild type. Sequences can lack the tags named with a protein.

B1: FLAG-ZNF645 (enzyme, UniProt Q8N7E2 1-425)
chain: MNKMPAGEQECEYNKEGKYYSKGVKLVRKKKKIPGYRWGDIKINIIGEKDDLPIHFCDKCDLPIKIYGRIIPCKHAFCYHCANLYDKVGYKVCPRCRYPVLRIEAHKRGSVFMCSIVQQCKRTYLSQKSLQAHIKRRHKRARKQVTSASLEKVRPHIAPPQTEISDIPKRLQDRDHLSYIPPEQHTMVSLPSVQHMLQEQHNQPHKDIQAPPPELSLSLPFPIQWETVSIFTRKHGNLTVDHIQNNSDSGAKKPTPPDYYPECQSQPAVSSPHHIIPQKQHYAPPPSPSSPVNHQMPYPPQDVVTPNSVRSQVPALTTTYDPSSGYIIVKVPPDMNSPPLRAPQSQNGNPSASEFASHHYNLNILPQFTENQETLSPQFTQTDAMDHRRWPAWKRLSPCPPTRSPPPSTLHGRSHHSHQRRHRRY
B2: FLAG-DCST1 (enzyme, UniProt Q5T197 1-706)
chain: MDIKHHQNGTRGQRRKQPHTTVQRLLTWGLPVSCSWFLWRQPGEFPVTALLLGAGAGGLLAIGLFQLLVNPMNIYEEQKIMFLYSLVGLGAMGWGTSPHIRCASLLLVPKMLGKEGRLFVLGYALAAIYVGPVANLRHNLNNVIASLGCTVELQINNTRAAWRISTAPLRAMFKDLLSSKELLRAETRNISATFEDLDAQVNSETGYTPEDTMDSGETAQGREARQAPASRLHLSTQKMYELKTKLRCSYVVNQAILSCRRWFDRKHEQCMKHIWVPLLTHLLCLPMKFKFFCGIAKVMEVWCRNRIPVEGNFGQTYDSLNQSIRGLDGEFSANIDFKEEKQAGVLGLNTSWERVSTEVRDYVYRQEARLEWALGLLHVLLSCTFLLVLHASFSYMDSYNHDIRFDNIYISTYFCQIDDRRKKLGKRTLLPLRKAEEKTVIFPCKPTIQASEMSNVVRELLETLPILLLLVVLCGLDWALYSIFDTIRHHSFLQYSFRSSHKLEVKVGGDSMLARLLRKTIGALNTSSETVMESNNMPCLPQPVGLDARAYWRAAVPIGLLVCLCLLQAFGYRLRRVIAAFYFPKREKKRILFLYNDLLKKRAAFTKLRRAAILRRERQQKAPRHPLADILHRGCPLLRRWLCRRCVVCQAPETPESYVCRTLDCEAVYCWSCWDDMRQRCPVCTPREELSSSAFSDSNDDTAYAG
B3: FLAG-DZIP3 (enzyme, UniProt Q86Y13 1-1208)
chain: MDSLPDEFFVRHPAVEDQRKEETENKLEKSSGQLNKQENDIPTDLVPVNLLLEVKKLLNAINTLPKGVVPHIKKFLQEDFSFQTMQREVAANSQNGEEIVPALTLRFLITQLEAALRNIQAGNYTAHQINIGYYLTLLFLYGVALTERGKKEDYTEAENKFLVMKMMIQENEICENFMSLVYFGRGLLRCAQKRYNGGLLEFHKSLQEIGDKNDHWFDIDPTEDEDLPTTFKDLLNNFIKTTESNIMKQTICSYLDCERSCEADILKNTSYKGFFQLMCSKSCCVYFHKICWKKFKNLKYPGENDQSFSGKKCLKEGCTGDMVRMLQCDVPGIVKILFEVVRKDEYITIENLGASYRKLISLKITDTDIRPKISLKFNTKDEMPIFKLDYNYFYHLLHIIIISGTDIVRQIFDEAMPPPLLKKELLIHKNVLESYYNHLWTNHPLGGSWHLLYPPNKELPQSKQFDLCLLLALIKHLNVFPAPKKGWNMEPPSSDISKSADILRLCKYRDILLSEILMNGLTESQFNSIWKKVSDILLRLGMMQEDIDKVKENPIENISLDYHQLSVYLGIPVPEIIQRMLSCYQQGIALQSITGSQRIEIEELQNEEEELSPPLMEYNINVKSHPEIQFAEINKDGTSIPSESSTESLKDLQEVKSKQRKKKKTKNKKNKDSKEDQVPYVVEKEEQLRKEQANPHSVSRLIKDDASDVQEDSAMEDKFYSLDELHILDMIEQGSAGKVTTDYGETEKERLARQRQLYKLHYQCEDFKRQLRTVTFRWQENQMQIKKKDKIIASLNQQVAFGINKVSKLQRQIHAKDNEIKNLKEQLSMKRSQWEMEKHNLESTMKTYVSKLNAETSRALTAEVYFLQCRRDFGLLHLEQTEKECLNQLARVTHMAASNLESLQLKAAVDSWNAIVADVRNKIAFLRTQYNEQINKVKQGFALSTLPPVQLPPPPPSPEILMQQFLGRPLVKESFFRPILTVPQMPAVCPGVVSATGQPRAPLMTGIAWALPAPVGDAVPPSAGLRSDPSIMNWERITDRLKTAFPQQTRKELTDFLRKLKDAYGKSLSELTFDEIVCKISQFIDPKKSQSQGKSVSNVNCVSPSHSPSQPDAAQPPKPAWRPLTSQGPATWEGASNPDEEEEEEEPCVICHENLSPENLSVLPCAHKFHAQCIRPWLMQQGTCPTCRLHVLLPEEFPGHPSRQLPKI
B4: FLAG-TRIM65 (enzyme, UniProt Q6PJ69 1-517)
chain: MAAQLLEEKLTCAICLGLYQDPVTLPCGHNFCGACIRDWWDRCGKACPECREPFPDGAELRRNVALSGVLEVVRAGPARDPGPDPGPGPDPAARCPRHGRPLELFCRTEGRCVCSVCTVRECRLHERALLDAERLKREAQLRASLEVTQQQATQAEGQLLELRKQSSQIQNSACILASWVSGKFSSLLQALEIQHTTALRSIEVAKTQALAQARDEEQRLRVHLEAVARHGCRIRELLEQVDEQTFLQESQLLQPPGPLGPLTPLQWDEDQQLGDLKQLLSRLCGLLLEEGSHPGAPAKPVDLAPVEAPGPLAPVPSTVCPLRRKLWQNYRNLTFDPVSANRHFYLSRQDQQVKHCRQSRGPGGPGSFELWQVQCAQSFQAGHHYWEVRASDHSVTLGVSYPQLPRCRLGPHTDNIGRGPCSWGLCVQEDSLQAWHNGEAQRLPGVSGRLLGMDLDLASGCLTFYSLEPQTQPLYTFHALFNQPLTPVFWLLEGRTLTLCHQPGAVFPLGPQEEVLS
B5: FLAG-MSL2 (enzyme, UniProt Q9HCI7 1-577)
chain: MNPVNATALYISASRLVLNYDPGDPKAFTEINRLLPYFRQSLSCCVCGHLLQDPIAPTNSTCQHYVCKTCKGKKMMMKPSCSWCKDYEQFEENKQLSILVNCYKKLCEYITQTTLARDIIEAVDCSSDILALLNDGSLFCEETEKPSDSSFTLCLTHSPLPSTSEPTTDPQASLSPMSESTLSIAIGSSVINGLPTYNGLSIDRFGINIPSPEHSNTIDVCNTVDIKTEDLSDSLPPVCDTVATDLCSTGIDICSFSEDIKPGDSLLLSVEEVLRSLETVSNTEVCCPNLQPNLEATVSNGPFLQLSSQSLSHNVFMSTSPALHGLSCTAATPKIAKLNRKRSRSESDSEKVQPLPISTIIRGPTLGASAPVTVKRESKISLQPIATVPNGGTTPKISKTVLLSTKSMKKSHEHGSKKSHSKTKPGILKKDKAVKEKIPSHHFMPGSPTKTVYKKPQEKKGCKCGRATQNPSVLTCRGQRCPCYSNRKACLDCICRGCQNSYMANGEKKLEAFAVPEKALEQTRLTLGINVTSIAVRNASTSTSVINVTGSPVTTFLAASTHDDKSLDEAIDMRFDC
B6: FLAG-RNF6 (enzyme, UniProt Q9Y252 1-685)
chain: MNQSRSRSDGGSEETLPQDHNHHENERRWQQERLHREEAYYQFINELNDEDYRLMRDHNLLGTPGEITSEELQQRLDGVKEQLASQPDLRDGTNYRDSEVPRESSHEDSLLEWLNTFRRTGNATRSGQNGNQTWRAVSRTNPNNGEFRFSLEIHVNHENRGFEIHGEDYTDIPLSDSNRDHTANRQQRSTSPVARRTRSQTSVNFNGSSSNIPRTRLASRGQNPAEGSFSTLGRLRNGIGGAAGIPRANASRTNFSSHTNQSGGSELRQREGQRFGAAHVWENGARSNVTVRNTNQRLEPIRLRSTSNSRSRSPIQRQSGTVYHNSQRESRPVQQTTRRSVRRRGRTRVFLEQDRERERRGTAYTPFSNSRLVSRITVEEGEESSRSSTAVRRHPTITLDLQVRRIRPGENRDRDSIANRTRSRVGLAENTVTIESNSGGFRRTISRLERSGIRTYVSTITVPLRRISENELVEPSSVALRSILRQIMTGFGELSSLMEADSESELQRNGQHLPDMHSELSNLGTDNNRSQHREGSSQDRQAQGDSTEMHGENETTQPHTRNSDSRGGRQLRNPNNLVETGTLPILRLAHFFLLNESDDDDRIRGLTKEQIDNLSTRHYEHNSIDSELGKICSVCISDYVTGNKLRQLPCMHEFHIHCIDRWLSENCTCPICRQPVLGSNIANNG

What follows are binders tested against biotinylated p53 (wild type) (UniProt P04637) (assay: AlphaScreen or HTRF; screen of the E3 protein array (258 FLAG-E3s, crude) against biotinylated p53 as bait, conditions as in the model assay, robotic dispensing; signal with p53 divided by signal with biotinylated DHFR; hits: relative value higher than 8).

Binder | binding
B1 | binds
B2 | binds
B3 | binds
B4 | binds
B5 | binds
B6 | binds
